From PubChem BioAssay AID1347076 (National Center for Advancing Translational Sciences (NCATS), 2019)
Screen size: about 400,000 compounds; about 13,000 (3.2%) were called active. The inconclusive results got no clear call from the source; some entries with a clear call stand among them for comparison. The call rests on the fitted dose curve; in most records, active means well fitted cell-killing curve with a large enough effect; inconclusive means small, poorly fitted or top-dose-only effect, or effect the other way; inactive means flat fitted curve, though single readings scatter. Potencies of inconclusive entries are doubtful fits and often do not repeat.

experiment: qHTS assay for MDR1-selective chemotherapeutics: Primary screen using the drug-selected MDR subline cells KB-V1; conditions: KB-V1 MDR cells viability, CellTiter-Glo, 72 h; activity change, negative = cytotoxicity: at 46.1 µM (top of the series); further: nearly all actives have a fitted effect of over 60% in size
Method in brief: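 KB-V1 MDR subline cells in DMEM (phenol-red free, 10% FBS) exposed to compounds in qHTS concentration series for 72 h at 37 degrees C. Viability read by CellTiter-Glo luminescence; concentration-effect curves fitted after normalization and correction.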
On the % scale 0 is the no-effect control and ±100 the full control effect; potency means the concentration at half of the fitted maximal effect.

Row | Structure (SMILES) | Potency | activity change, negative = cytotoxicity
1 | CCNC(=S)Nc1ccc2c(c1)c(=O)n(C)n2Cc1cccc(C(F)(F)F)c1 | inconclusive: 20.6 µM [cytotoxic, single point] | –
2 | COc1ccc(COC(=O)NC2CCN(S(=O)(=O)c3ccc(OC)cc3)CC2)cc1 | active: 7.31 µM | –
3 | CC1CCC2(CC1)NC(=O)N(CC(=O)Nc1cccc(S(=O)(=O)N(C)c3ccccc3)c1)C2=O (configuration not stated) | – | inactive: 8.19%
4 | CCOC(=O)c1nn(-c2ccccc2)c2nnc(Cc3ccc(C)cc3)c(=O)n12 | – | inactive: 8.2%
5 | Cc1cccc(N=N/C(=C\O)C(=O)c2cccs2)c1 | active: 25.9 µM | –
6 | CCOC(=O)c1ccc(NC(=O)Nc2ccon2)cc1 | inconclusive: 29.1 µM [cytotoxic, partial curve, poor fit] | –
7 | CCOc1ccccc1Oc1nc(-c2ccccc2O)nc2ccccc12 | – | inactive: -17.6%
8 | Cc1ccc(NC(=O)/C=C\C(=O)NCC(=O)O)cc1 | – | inactive: 0%
9 | Oc1ccc(/C=N/N2CCOCC2)c(O)c1O | – | inactive: -2.04%
10 | COc1ccc(S(=O)(=O)Nc2cc(C(=O)NC(C)C)ccc2N2CCOCC2)cc1 | inconclusive: 18.4 µM [cytotoxic, single point] | –
11 | COc1cccc2c1OC[C@@H](CO)[C@H]2N(C)C(=O)Nc1ccc(Cl)cc1Cl | active: 3.26 µM | –
12 | Cc1nc2c(C#N)c[nH]n2c(=O)c1CCO | – | inactive: -0.972%
13 | CCOC(=O)Cc1c(C)nc2c(-c3ccc(OC)c(OC)c3)c(C)nn2c1C | inconclusive: 20.6 µM [cytotoxic, partial curve, poor fit] | –
14 | O=C(CCC(=O)N1CC2CCCN2c2ccccc21)NCc1ccccc1F (configuration not stated) | – | inactive: -19.6%
15 | COc1ccccc1NS(=O)(=O)c1cccc(NC(=O)Nc2cccc(Cl)c2)c1 | – | inactive: 0%
16 | Cc1ccccc1NC(=S)N(CCc1c(C)[nH]c2ccc(F)cc12)Cc1ccncc1 | inconclusive: 16.4 µM [cytotoxic, single point] | –
17 | CN1CCN(C(=O)c2cc(-c3cccc(Cl)c3)on2)CC1 | inconclusive: 14.6 µM [cytotoxic, partial curve, poor fit] | –
18 | COc1ccc(-c2cc(C(=O)Nc3ccc(C#N)cc3)no2)cc1 | inconclusive: 29.1 µM [rising, single point] | –
19 | CCOC(=O)CC(NC(=O)c1cc2cc(OC)ccc2oc1=O)c1ccc(OC)cc1 (configuration not stated) | inconclusive: 29.1 µM [rising, single point] | –
20 | O=C(Nc1nnc(-c2ccco2)o1)c1cccc2ccccc12 | inconclusive: 14.6 µM [cytotoxic, single point] | –
21 | COc1ccc(N(C(=O)c2ccncc2)S(=O)(=O)c2ccc(Cl)cc2)cc1 | – | inactive: 10.4%
22 | CC(=O)Oc1ccc(Cn2c(C)c(C(=O)NCc3ccc4c(c3)OCCO4)sc2=O)cc1 | inconclusive: 23.1 µM [cytotoxic, single point] | –
23 | O=C(OC12CC3CC(CC(C3)C1)C2)c1ccc(NCc2cc(O)ccc2O)cc1 | active: 14.6 µM | –
24 | O=C1CCCN2N=C(SCC(=O)Nc3ccc([N+](=O)[O-])cc3)SC2=N1 | – | inactive: 6.77%

Complete entries as entered above. Values in the order: Potency	activity change, negative = cytotoxicity
COc1ccc(N(C(=O)c2ccncc2)S(=O)(=O)c2ccc(Cl)cc2)cc1 is listed with –	inactive: 10.4%
CN1CCN(C(=O)c2cc(-c3cccc(Cl)c3)on2)CC1 is listed with inconclusive: 14.6 µM [cytotoxic, partial curve, poor fit]	–
Cc1ccccc1NC(=S)N(CCc1c(C)[nH]c2ccc(F)cc12)Cc1ccncc1 is listed with inconclusive: 16.4 µM [cytotoxic, single point]	–
COc1ccc(-c2cc(C(=O)Nc3ccc(C#N)cc3)no2)cc1 is listed with inconclusive: 29.1 µM [rising, single point]	–

The results go on:

Row | Structure (SMILES) | Potency | activity change, negative = cytotoxicity
25 | COc1ccc(S(=O)(=O)N2CCN(C(=O)c3cccc(Cl)c3)CC2)cc1 | inconclusive: 29.1 µM [cytotoxic, single point] | –
26 | O=C(O)c1ccccc1C=NNc1ccccn1 | – | inactive: -1.37%
27 | Cc1cccc(OCC(=O)OCc2cc(=O)n3nc(C4CC4)sc3n2)c1 | inconclusive: 13 µM [rising, partial curve, poor fit] | –
28 | Cc1ccc(OCCCC(=O)Nc2nnc(C3CCCO3)s2)c(C)c1 (configuration not stated) | inconclusive: 16.4 µM [cytotoxic, partial curve] | –
29 | COc1cc(OC)cc(C(=O)Nc2nc(CC(=O)NCc3ccccc3OC)cs2)c1 | active: 16.4 µM | –
30 | O=C1C2C3C=CC(CC3)C2C(=O)N1c1ccccc1 (configuration not stated) | – | inactive: 2.27%
31 | O=C(NCc1ccccc1)c1cccc(Nc2nc3ccccc3n3nnnc23)c1 | inconclusive: 16.4 µM [cytotoxic, partial curve, poor fit] | –
32 | Oc1c(Br)cc(Br)cc1/C=N/NC(=S)N[C@H]1CC2C=CC1C2 (some centres not stated) | inconclusive: 18.4 µM [cytotoxic, single point] | –
33 | O=C(NC(=S)Nc1ccc2oc(=O)ccc2c1)c1ccco1 | – | inactive: -0.299%
34 | CCOc1ccc(S(=O)(=O)N2CCN(C(=O)c3cc(-c4ccccc4)nn3-c3ccccc3)CC2)cc1 | inconclusive: 4.11 µM [cytotoxic, partial curve] | –
35 | Cc1cccc(C)c1OCC(=O)Nc1cccc(NC(=O)c2ccco2)c1 | inconclusive: 16.4 µM [cytotoxic, single point] | –
36 | COc1ccc(C(=O)N(Cc2ccco2)Cc2cccs2)c(O)c1 | – | inactive: -14.8%
37 | COc1ccccc1C1C2CCCCC2(O)CCN1CC(=O)Nc1ccccc1 (configuration not stated) | inconclusive: 2.31 µM [cytotoxic, full curve] | –
38 | COc1ccc(NC(=O)N2CCC(C(=O)c3ccc4c(c3)OCCO4)CC2)cc1 | inconclusive: 20.6 µM [cytotoxic, single point] | –
39 | Cc1ccccc1Cn1nc(C)c(NC(=O)c2ccccc2)c1C | inconclusive: 6.51 µM [cytotoxic, partial curve, poor fit] | –
40 | COc1ccccc1C(=O)NCCC(=O)N1CCN(c2cccc(C(F)(F)F)c2)CC1 | – | inactive: -18.6%
41 | COC(=O)[C@]12CCCCC=C1N(Cc1ccc3c(c1)OCO3)C(=O)[C@H](CC(=O)NCCCCc1ccccc1)C2 | active: 16.4 µM | –
42 | CCN(CC(=O)NCCc1ccc(F)cc1)Cc1nc2ccccc2c(=O)[nH]1 | inconclusive: 20.6 µM [cytotoxic, partial curve] | –
43 | O=C(N/N=C/c1ccc(Cl)cc1)c1sccc1OCc1ccc(F)cc1 | active: 1.3 µM | –
44 | Cc1onc(-c2ccccc2Cl)c1C(=O)Nc1cccc(-c2cn3cccnc3n2)c1 | active: 16.4 µM | –
45 | COc1ccc(-c2csc3ncnc(N4CCN(S(=O)(=O)c5cccc(Br)c5)CC4)c23)cc1 | inconclusive: 18.4 µM [cytotoxic, partial curve, poor fit] | –
46 | Cc1cccc(C)c1-n1nnnc1C(c1ccnc2ccccc12)N1CCN(C(=O)OCc2ccccc2)CC1 (configuration not stated) | – | inactive: -13.8%
47 | CC(C(=O)O)n1c2ccccc2c2cnn(C)c(=O)c21 (configuration not stated) | – | inactive: 0%
48 | CCOc1ccc(NC(=O)CCn2c(-c3ccc(F)cc3)cc(C(C)=O)c2C)cc1 | – | inactive: -9.53%

Row | Structure (SMILES) | Potency | activity change, negative = cytotoxicity
49 | COc1ccccc1C(=O)Nc1ccccc1SC(=O)c1ccccc1OC | – | inactive: -0.75%
50 | CSc1ccccc1NC(=O)CN(C)CC(=O)Nc1ccccc1F | inconclusive: 14.6 µM [cytotoxic, partial curve, poor fit] | –
51 | CCc1nc2ccccc2c(=O)n1NC(=O)c1c(O)c2cccc3c2n(c1=O)CCC3 | inconclusive: 6.51 µM [cytotoxic, full curve, poor fit] | –
52 | O=C(NCc1cccnc1)c1sc2cc(Cl)ccc2c1Cl | inconclusive: 32.6 µM [cytotoxic, single point] | –
53 | O=S(=O)(NCCc1ccc(Cl)cc1)c1ccc(N2CCCCS2(=O)=O)cc1 | – | inactive: -8.3%
54 | Cc1c(NC(=O)Nc2ccccc2)cccc1[N+](=O)[O-] | inconclusive: 14.6 µM [cytotoxic, single point] | –
55 | Cc1ccc(-c2noc(CCC(=O)NCCCN3CCN(c4cccc(Cl)c4)CC3)n2)cc1 | active: 16.4 µM | –
56 | CCN1C/C(=C/c2cccs2)c2nc3ccccc3c(C(=O)O)c2C1 | – | inactive: 2.78%
57 | C/C(CC(=O)NCCc1ccccc1)=N\NC(=O)COc1ccc(Br)cc1 | – | inactive: 10.7%
58 | CCc1c(C)sc(NC(=S)NC(C)C2CCCO2)c1C(=O)OC (configuration not stated) | inconclusive: 16.4 µM [cytotoxic, single point] | –
59 | COC(=O)c1cn(C(=O)c2ccc(C)cc2C)c2ccccc12 | – | inactive: -25.2%
60 | O=C(Nc1ccccn1)C1CCCN1S(=O)(=O)c1ccc(Cl)cc1 (configuration not stated) | inconclusive: 29.1 µM [cytotoxic, single point] | –
61 | COc1ccccc1OCCCn1c(-c2ccc(Cl)cc2)nc2ccccc2c1=O | inconclusive: 0.206 µM [cytotoxic, full curve] | –
62 | COc1ccc(CNC(=O)COC(=O)CN2C(=O)C3CCCCC3C2=O)cc1 (configuration not stated) | – | inactive: 0%
63 | O=C(c1ccc(Cl)cc1)C1CCN(Cc2ccccc2)CC1 | – | inactive: 4.92%
64 | O=C(CSc1nnc(-c2ccccc2)c(-c2ccccc2)n1)Nc1ccccc1Cl | inconclusive: 20.6 µM [cytotoxic, partial curve] | –
65 | COc1ccc(CNC(=O)O[C@H]2C[C@@H]3C(=O)N(c4ccccc4)C(=O)[C@@H]3[C@@H]3CN(S(=O)(=O)c4ccc(C)cc4)C[C@]23O)cc1OC | – | inactive: 13%
66 | O=[N+]([O-])c1ccccc1N/N=C/c1ccc2c(c1)OCO2 | inconclusive: 18.4 µM [cytotoxic, partial curve, poor fit] | –
67 | COc1ccc(N(Cc2cc3ccccc3[nH]c2=O)S(=O)(=O)c2ccc(OC)cc2)cc1 | inconclusive: 29.1 µM [cytotoxic, single point] | –
68 | CCOC(=O)[C@]12CCCC=C1N(Cc1ccccc1)C(=O)[C@H](CC(=O)NCc1cccc(C(F)(F)F)c1)C2 | inconclusive: 18.4 µM [cytotoxic, partial curve, poor fit] | –
69 | Cc1nc2c(OCc3ccc(C(F)(F)F)cc3)cccn2c1N(C)Cc1cccs1 | inconclusive: 29.1 µM [cytotoxic, single point] | –
70 | O=C(CS(=O)(=O)c1ccc(F)cc1)NCc1ccccc1 | inconclusive: 4.11 µM [rising, partial curve, poor fit] | –
71 | CCOC(=O)c1sc(NC(=O)C(CC)Sc2nccn2C)nc1C (configuration not stated) | – | inactive: -18.2%
72 | COc1ccc(C(=O)Nc2cccc3cccnc23)cc1OC | inconclusive: 6.51 µM [cytotoxic, partial curve] | –
